According to patent publication US5230802A, “Extraction process using a novel organic acid as a liquid ion exchanger” (Philip Morris Incorporated, priority 1992, dated 1993):

Assays:
[1] = Membrane-based extraction of pyridine using liquid ion exchangers (Table II); conditions: LIX 5%, PAN membrane, CO2-saturated FS, OS Isopar K
[2] = Membrane-based extraction of nicotine using liquid ion exchangers (Table II); conditions: PAN membrane, CO2-saturated FS, OS Isopar K

SMILES	Extraction Capacity [1] [g/day-m]	Extraction Capacity ([2]; LIX 2%) [g/day-m]	Extraction Capacity ([2]; LIX 5%) [g/day-m]
CCCCCCCCOC(=O)[C@H](OC(=O)CC)[C@@H](OC(=O)CC)C(=O)O [Example IV, (2R, 3R)-Monooctyl 2,3-Bis(propionyloxy) butanedioate]	5.1		
CCCCC(CC)COC(=O)[C@H](OC(=O)C(CC)CCCC)[C@@H](OC(=O)C(CC)CCCC)C(=O)O (stereo partly drawn) [Example X, (2R, 3R, 2'.xi., 2''.xi., 2'''.xi.)-Mono(2'-Ethylhexyl) 2,3-Bis(2-ethylhexanoyloxy)butanedioate]		8.2	9.8
CCCCC(CC)COC(=O)[C@H](OC(=O)CC)[C@@H](OC(=O)CC)C(=O)O (mixture of isomers) [Example V, (2R, 3R, 2'R)- and (2R, 3R, 2'S)-Mono(2'-Ethylhexyl) 2,3-Bis(propionyloxy)butanedioate]	4.2		
